Consider 65 compounds from PubChem BioAssay AID493014 (National Center for Advancing Translational Sciences (NCATS), 2011).

In general, AC50 refers to the concentration giving half of the maximal activity seen.

A short description of the assay: qHTS Assay to Find Inhibitors of Chronic Active B-Cell Receptor Signaling. Conditions: ABC-DLBCL IkBa-CBG/CBR reporter, luminescence ratio (green luciferase fused to IkBa over red control in TMD8 lymphoma cells), 4 h. A digest of the protocol: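 Compounds up to 46 uM were incubated four hours with TMD8 cells whose green CBG68 luciferase is fused to IkappaBalpha; red CBR luminescence normalised the signal, and concentration-effect curves were fitted to fusion, red and ratio data.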
A general note: Quantitative high-throughput screening tests each substance at several concentrations.

Where [1] appears, read: measured here: CBR red luminescence, cell number.
The mark [2] stands for this setting: measured here: IkBa-CBG green luminescence.

This is one part of the list. The main result of the screen is listed elsewhere. These columns were measured beside it and carry no call. The list favours compounds with an active or inconclusive main result. Potencies come from curve fits of mixed quality, noted in brackets.

Turning to `Cc1cc(C)c(NC2=NCC(=O)N2C2CCCCC2)c(C)c1`, the AC50 under setting [1] was 7.31 µM [rising, partial curve, poor fit].
The same measure, in the same setting: the figure for `CCNc1nc(NCc2ccccc2)nc(Oc2ccc(=O)[nH]n2)n1` is 4.61 µM [rising, full curve, poor fit].
On the same count and under the same terms, next, `COc1cccc(NCc2cc(=O)oc3cc(-c4ccccc4)c(O)cc23)c1`: 29.1 µM [falling, single point]; `Oc1cccc(Nc2nc(-c3ccccc3Cl)nc3ccccc23)c1`: 12.6 µM [falling, partial curve].
The same measure, in the same setting: next, `Cc1ccnc2nc(C(=O)OCCOc3ccc(Cl)cc3)nn12`: 25.1 µM [falling, single point].
As to `COC(=O)c1nc(-n2nc(C)cc2C)ccc1Cl`, the AC50 under setting [1] was 3.26 µM [falling, single point].
Same read-out and setting: the figure for `O=C(CSc1n[nH]c(-c2cccs2)n1)N1CCOCC1` is 13 µM [rising, partial curve, poor fit]; for `CC(=O)N1C=CN(C(C)=O)C(c2cn(C)c3ccccc23)C1c1cn(C)c2ccccc12` (configuration not stated) it is 6.51 µM [rising, single point].
The same measure, in the same setting: the figure for `COC(/C=C/Nc1ccc(C)cc1)=C(C#N)C#N` is 0.146 µM [rising, full curve, poor fit]; for `CC1(C2CC2)NC(=O)N(CC(=O)N2CCN(c3ccccc3)CC2)C1=O` (configuration not stated) it is 29.1 µM [rising, single point].
Same read-out and setting: next, `Cc1cccnc1Nc1nc(-c2ccc(F)cc2)cs1`: 12.6 µM [falling, single point]; `CC(/C=C/C=C/c1ccccc1)=N/NC(=O)c1ccc2c(c1)OCCO2`: 35.5 µM [falling, single point]; `CCN(CC)CCNC(=O)c1ccc2c(=O)n3nc(Nc4ccccc4)sc3nc2c1`: 8.91 µM [falling, partial curve].
With `Cc1ccc2nc(NC(=O)C3CCN(S(=O)(=O)c4cc([N+](=O)[O-])ccc4Cl)CC3)sc2c1`, the AC50 under setting [1] is 5.17 µM [falling, partial curve] and the AC50 under setting [2] was 29.1 µM [rising, partial curve, poor fit].
Take `NS(=O)(=O)c1cccc(NC(=O)c2ccno2)c1`: the AC50 under setting [1] is 15.8 µM [rising, single point].
For the compound `CC(=NCc1ccco1)c1c(C(F)(F)F)[nH]n(-c2nc3ccccc3s2)c1=O`, under setting [1], the concentration at half-maximal activity (AC50) is 1.84 µM [falling, full curve, poor fit].
Still for that read-out and setting: the figure for `CCSc1nnc(SCC(=O)Nc2cc(C)on2)s1` is 6.51 µM [rising, partial curve, poor fit].
On the same count and under the same terms, next, `CCC(C)NCCOCCOc1ccc(Br)cc1C` (configuration not stated): 29.1 µM [falling, single point]; `COCc1ccc(C(=O)N2CCCC(C(=O)c3ccc(SC)cc3)C2)s1` (configuration not stated): 12.6 µM [falling, partial curve, poor fit].
For the compound `Cc1cccc(OCCSc2ncnc3nc[nH]c23)c1`, under setting [1], the AC50 is 0.1 µM [rising, full curve, poor fit].
The same measure, in the same setting: next, `O=C(Nc1cccc(-c2cnc3ccccc3n2)c1)c1ccco1`: 32.6 µM [falling, single point]; `O=C(Nc1ccccn1)c1ccc(=O)[nH]n1`: 2.59 µM [rising, partial curve, poor fit]; `COc1ccc(C2CC(c3ccccc3)=NN2C(=O)CSc2nccc(=O)[nH]2)cc1` (configuration not stated): 18.4 µM [rising, partial curve, poor fit].
The same measure, in the same setting: the figure for `O=C(CCN1C(=O)S/C(=C/c2ccc(F)cc2)C1=O)Nc1ccc(O)c(C(=O)O)c1` is 0.0891 µM [falling, full curve, poor fit]; for `C=CCN(CC=C)Cc1c(O)ccc2c(=O)c(-c3ccccc3)coc12` it is 11.2 µM [rising, partial curve, poor fit].
On the same count and under the same terms, the figure for `CC(C)(C)NC(=O)NC(=O)COC(=O)c1cccc(OC(F)F)c1` is 22.4 µM [falling, single point]; for `O=C(Cc1ccccc1)Nc1ccccc1C(=O)Nc1ccccc1` it is 4.61 µM [rising, full curve, poor fit]; for `NC(=O)c1cnn(-c2cc(Oc3ccccc3)ncn2)c1N` it is 15.8 µM [rising, partial curve, poor fit].
Regarding `Cc1cc(NC(=O)CCC(=O)N(Cc2ccco2)C(C(=O)NC2CCCCC2)c2cccs2)no1` (configuration not stated), the AC50 under setting [1] is 20 µM [falling, partial curve, poor fit].
With `O=C(O)c1ccc(N=NNc2cccc([N+](=O)[O-])c2)cc1`, the AC50 under setting [1] was 2.24 µM [falling, partial curve].
In the case of `CC(=O)Nc1ccc(NC(=O)COC(=O)c2ccccc2SCC(=O)N2CCCC2)cc1`, the AC50 under setting [1] was 29.1 µM [rising, partial curve, poor fit].
Regarding `CC(C)(C)OC(=O)C[C@@H]1C/C=C\C[C@H](CC(=O)N(CCO)Cc2ccccc2)C(=O)NC[C@H](c2ccccc2)OC1=O`, under setting [1], the half-maximal activity concentration (AC50) was 18.4 µM [rising, single point].
Still for that read-out and setting: the figure for `O=C(COC(=O)c1c2c(nc3ccccc13)CCCC2)c1ccc(Br)s1` is 29.1 µM [falling, single point]; for `O=C(N/N=C1/CC2C=CCC12)c1cccs1` (configuration not stated) it is 25.1 µM [falling, single point]; for `CCOC(=O)NC(NC(=S)Nc1ccc(OCC)cc1)C(Cl)(Cl)Cl` (configuration not stated) it is 9.2 µM [falling, partial curve, poor fit].
On the same count and under the same terms, the figure for `COc1ccccc1-c1nnc2sc(COc3ccccc3)nn12` is 35.5 µM [falling, single point]; for `Cc1ccc(NCC(=O)c2ccc([N+](=O)[O-])cc2)cc1` it is 35.5 µM [falling, single point]; for `Cc1cc(=O)oc2cc(OS(C)(=O)=O)ccc12` it is 11.2 µM [rising, partial curve, poor fit].
Turning to `COc1cc(/C=C2\SC(=S)N(CC(=O)Nc3ccc(O)cc3)C2=O)cc(OC)c1OC`, the AC50 under setting [1] is 35.5 µM [rising, single point].
Still for that read-out and setting: next, `CCOc1ccc(NC(=O)c2ccc(N)cc2)cc1`: 11.6 µM [falling, partial curve]; `CCOc1cc(CNc2ccc3c(c2)OCCO3)cc(Br)c1OC`: 6.51 µM [falling, single point].
Still for that read-out and setting: the figure for `CS(=O)(=O)n1nc(-c2ccc(Cl)cc2)nc1N` is 1.12 µM [rising, partial curve]; for `CN(C)/C=N/c1ncc(C(=O)c2ccc3ccccc3c2)s1` it is 35.5 µM [falling, single point]; for `CCc1nnc(NC(=O)C2COc3ccccc3O2)s1` (configuration not stated) it is 13 µM [falling, partial curve, poor fit].
On to `COC(=O)c1c(NC(=O)c2ccco2)sc2c1CCN(C(C)C)C2`, for which the concentration at half-maximal activity (AC50) under setting [1] is 35.5 µM [falling, single point].
Same read-out and setting: next, `O=c1oc2c(CN3CCOCC3)c(O)ccc2c2c1CCCC2`: 7.08 µM [rising, full curve, poor fit]; `Cc1cccc(CN2CCN(CC(=O)N3CCCC3)C2=O)c1`: 0.206 µM [rising, full curve, poor fit]; `Cc1ccc(C(C)C)cc1NC(=O)Nc1ccc([N+](=O)[O-])cc1`: 28.2 µM [rising, single point].
Regarding `CN(C1CCCCC1)S(=O)(=O)c1ccc(NC(=O)c2ccc(Br)o2)cc1`, the AC50 under setting [1] is 1.3 µM [falling, full curve, poor fit].
Still for that read-out and setting: next, `O=C(CCc1[nH]c2ccccc2c1Sc1ccccc1)NCCO`: 32.6 µM [falling, single point]; `CC(C)(C)NC(=O)CC(CC(=O)O)c1ccccc1` (configuration not stated): 29.1 µM [rising, single point]; `O=C(CSc1nnc(-c2ccc(Cl)cc2)n1Cc1ccco1)Nc1ccc2c(c1)OCCO2`: 10 µM [falling, partial curve, poor fit].
For `S=C(Nc1cccc(Cl)c1Cl)N1CCC2(CC1)OCCO2`, the concentration at half-maximal activity (AC50) under setting [1] was 14.1 µM [rising, partial curve, poor fit].
The same measure, in the same setting: the figure for `O=C(COC(=O)c1cnccn1)c1ccc(Cl)c([N+](=O)[O-])c1` is 14.1 µM [falling, partial curve, poor fit]; for `O=C(c1ccccc1)n1c(=S)nc2ccccn21` it is 2.51 µM [falling, full curve, poor fit]; for `CC1CC(C)CN(C(=O)C(NS(=O)(=O)c2ccc(Br)s2)c2ccccc2)C1` (configuration not stated) it is 8.2 µM [falling, partial curve].
With `Cc1cc(NC(=O)c2cccs2)ncc1NC(=O)C(C)C`, under setting [1], the half-maximal activity concentration (AC50) is 22.4 µM [falling, single point].
Still for that read-out and setting: the figure for `O=C(CSc1ccc(Br)cc1)Nc1ccccc1N1CCOCC1` is 20 µM [falling, single point].
Turning to `CN(/C=C/C(=O)C(F)(F)C(F)(F)F)Cc1ccccc1`, under setting [1], the AC50 is 23.1 µM [rising, single point].
As for `Cc1c(C(=O)N2CCCCC2)nnn1-c1nonc1N`, the AC50 under setting [1] was 2.31 µM [rising, partial curve, poor fit].
As to `COc1ccc(S(=O)(=O)Nc2ccc3c(c2)C(=O)N([C@H](C)CO)C[C@H](C)[C@@H](CN(C)C(=O)NC2CCCCC2)O3)cc1`, the AC50 under setting [1] was 2.06 µM [rising, partial curve, poor fit].
On the same count and under the same terms, next, `Cc1ccccc1N=CC=C1OC(C)(C)C(C)(C)O1`: 29.1 µM [falling, single point]; `CSc1nc2c(cnn2-c2ccccc2)c(=O)n1N`: 11.2 µM [falling, partial curve, poor fit].
As to `COc1ccc(/C=N/NC(=O)CN(C)C(=O)OCc2ccccc2)cc1OC`, the concentration at half-maximal activity (AC50) under setting [1] is 15.8 µM [rising, partial curve, poor fit].
For `COc1cc(S(=O)(=O)N2CCCCC2)ccc1NC(=O)/C=C/c1ccccc1`, the AC50 under setting [1] was 18.4 µM [rising, partial curve] and the half-maximal activity concentration (AC50) under setting [2] was 9.2 µM [falling, partial curve].
